The supplement of paper PMC9233669
This sample is rich in variants without activity.

Tests used:
[1] = tested on: biotinyl-Trp-oxazolone; assay: self-aminoacylation, catalytic enhancement (BWO) (fold over background); higher = more active; k-Seq, kA / k0A0; sequences stand for … in GGGAAUGGAUCCACAUCUACGAAUUC…UUCACUGCAGACUUGACGAAGCUG
In short: (§1)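 Working in 50 μL HEPES/NaCl/KCl/MgCl2/CaCl2 buffer with 5% acetonitrile at pH 6.9–7.0, mutagenized RNA pools (0.43 μM; 21-nt variable region) were reacted with 2–1250 μM of each biotinyl-aminoacyl-oxazolone for 90 minutes at room temperature. Streptavidin capture followed, with quantification by triplicate qPCR and Illumina sequencing. Catalytic enhancement is reported as median kA over the uncatalyzed rate, the low-activity peak of a bimodal Gaussian fit to the data.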

[2] = tested on: biotinyl-Val-oxazolone; assay: self-aminoacylation, catalytic enhancement (BVO) (fold over background); higher = more active; k-Seq, kA / k0A0; sequences stand for … in GGGAAUGGAUCCACAUCUACGAAUUC…UUCACUGCAGACUUGACGAAGCUG
In short: as §1

[3] = tested on: biotinyl-Met-oxazolone; assay: self-aminoacylation, catalytic enhancement (BMO) (fold over background); higher = more active; k-Seq, kA / k0A0; sequences stand for … in GGGAAUGGAUCCACAUCUACGAAUUC…UUCACUGCAGACUUGACGAAGCUG
In short: as §1

[4] = tested on: biotinyl-Leu-oxazolone; assay: self-aminoacylation, catalytic enhancement (BLO) (fold over background); higher = more active; k-Seq, kA / k0A0; sequences stand for … in GGGAAUGGAUCCACAUCUACGAAUUC…UUCACUGCAGACUUGACGAAGCUG
In short: as §1

[5] = tested on: biotinyl-Ile-oxazolone; assay: self-aminoacylation, catalytic enhancement (BIO) (fold over background); higher = more active; k-Seq, kA / k0A0; sequences stand for … in GGGAAUGGAUCCACAUCUACGAAUUC…UUCACUGCAGACUUGACGAAGCUG
In short: as §1

Sequence	self-aminoacylation [1]	self-aminoacylation [2]	self-aminoacylation [3]	self-aminoacylation [4]	self-aminoacylation [5]
AAGUUUUCAAAUAGUCGCAAG [Fam3.1 aminoacylation ribozyme variant]	1.65	1.39	1.59	1.65	1.68
AAGUUUUCUAAUAGCCGCAAG [Fam3.1 aminoacylation ribozyme variant]	1.23	1.71	1.65	1.87	1.46
AAGUUUUCUAAUAGUUGCAAG [Fam3.1 aminoacylation ribozyme variant]	1.48	1.26	1.32	1.52	1.77
AAUUUAGCUAAUAGUCGCAAG [Fam3.1 aminoacylation ribozyme variant]	1.81	1.57	1.82	1.92	
ACACACUUCAAGCAACCGGUC [Fam1B.1 aminoacylation ribozyme variant]	1.13	1.54	1.51	1.17	1.18
ACACACUUCAAGCGAUCGGUC [Fam1B.1 aminoacylation ribozyme variant]	1.49	1.34	1.18	1.34	1.39
ACGUGUGCUAAUAGUCGCAAG [Fam3.1 aminoacylation ribozyme variant]	1.63	1.28	1.62	1.68	1.6
ACGUUUGCUAAUAGUCGCAGG [Fam3.1 aminoacylation ribozyme variant]	1	1.56	1.78	1.58	1.49
ACUCACCUAGGUCAUCGGGUU [Fam2.2 aminoacylation ribozyme variant]	6.68	5.06	8.19	11.3	5.92
AGUACCCUGGUCAUCGAGUAA [Fam2.1 aminoacylation ribozyme variant]	1.7	1.53			1.47
AUUACCCUGGUCAUCCAGAGA [Fam2.1 aminoacylation ribozyme variant]	1.44	1.47	1.71		1.22
AUUCACCGAGGUCAUCAGGUG [Fam2.2 aminoacylation ribozyme variant]	1.81	1.59	1.81		1.28
AUUCACCGAGGUCAUCGGGUC [Fam2.2 aminoacylation ribozyme variant]	1.44		1.97		
AUUCACCUAAGUCAUCGGGUU [Fam2.2 aminoacylation ribozyme variant]	1.71	1.78			1.95
AUUCACCUACGUCAUCUGGUG [Fam2.2 aminoacylation ribozyme variant]	1.81	1.55			1.41
AUUCACCUACGUCGUCGGGUG [Fam2.2 aminoacylation ribozyme variant]	1.83	1.52	1.31		1.56

Sequence	self-aminoacylation [1]	self-aminoacylation [2]	self-aminoacylation [3]	self-aminoacylation [4]	self-aminoacylation [5]
AUUCACCUAGGUCAACGAGUG [Fam2.2 aminoacylation ribozyme variant]	1.81	1.95			
AUUCACCUAGGUCAGCGUGUG [Fam2.2 aminoacylation ribozyme variant]	1.91	1.71			1.58
CAGUUUGCUAAUAGUCGCAAA [Fam3.1 aminoacylation ribozyme variant]	1.69	1.62	1.96	1.98	
CCACACUUCAGGCAAUCGCUC [Fam1B.1 aminoacylation ribozyme variant]	1.84		2		
CUUCACCUAGGUCAACGGGUG [Fam2.2 aminoacylation ribozyme variant]	1.86	1.97			1.81
GUUACCCUGGUCAUCGGGUGA [Fam2.1 aminoacylation ribozyme variant]		36.7	89.7	92.1	30.9
GUUCAACUAGGUCAUCGGGUG [Fam2.2 aminoacylation ribozyme variant]		4.16	5.04	6.94	4.28
GUUCACCUAGGUGAUCGGGUG [Fam2.2 aminoacylation ribozyme variant]		3.88	3.88	4.25	3.88
UAGUUUCCUAAUAGUCGCAAG [Fam3.1 aminoacylation ribozyme variant]		1.52	1.95	1.55	1.9
UAGUUUGCUAAUAGUCGUAAG [Fam3.1 aminoacylation ribozyme variant]		1	1.21	0.88	1.14
UCACAAUUCAAGCAAUCGGUC [Fam1B.1 aminoacylation ribozyme variant]		0.986	0.989	0.949	1.04
UCACACUUCAAGGAAUCGGUC [Fam1B.1 aminoacylation ribozyme variant]		0.914	0.903	0.918	0.913
UUACUUCAAACAAUCGGUCAG [Fam1A.1 aminoacylation ribozyme variant]		1.2	1.23	1.46	1.32
UUACUUCAGACAAUCGGUCUG [Fam1A.1 aminoacylation ribozyme variant]		1.12	1.11	1.3	1.14
UUUAGCCUGGUCAUCGAGUGA [Fam2.1 aminoacylation ribozyme variant]		4.28	5.59	5.82	4.42
